Measurements reported in paper PMC4172982.
No constants are given. Whether binding was seen depends on the method and setting.

Sequences of proteins named here, by UniProt entry; tags and fusion partners are left off.
UniProt P02687: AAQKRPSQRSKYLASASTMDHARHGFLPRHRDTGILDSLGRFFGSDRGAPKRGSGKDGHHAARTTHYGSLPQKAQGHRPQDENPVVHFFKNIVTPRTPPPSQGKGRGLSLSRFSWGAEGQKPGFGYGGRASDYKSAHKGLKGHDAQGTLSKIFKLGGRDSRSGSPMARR
UniProt P16402: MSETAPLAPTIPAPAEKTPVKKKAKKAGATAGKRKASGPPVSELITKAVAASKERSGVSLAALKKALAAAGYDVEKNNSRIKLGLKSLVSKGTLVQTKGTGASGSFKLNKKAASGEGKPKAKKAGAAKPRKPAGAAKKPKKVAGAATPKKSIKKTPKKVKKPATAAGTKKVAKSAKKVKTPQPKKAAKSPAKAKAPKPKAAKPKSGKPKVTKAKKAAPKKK

Target: Myelin basic protein (MBP) from bovine brain (bovine) (UniProt P02687)
Assay: SPR; Biacore T200; MBP immobilised on a CM4 chip (~1,500 RU, amine coupling); analytes injected at 5.0 μM, 25 μL/min, 200 s; HBS-EP+, 25°C; both purified

binding: no binding (tested: 5.0 μM)
Substance: Histone H1.3 human, recombinant (from UniProt P16402 1-221)
